Measurements reported in article PMC8102515.
Results are given in words; binding and its absence hold for the method and conditions named. Some results given as binding are weak or reduced against the parent protein; the word gives no strength.

Tests used:
[1] = target: T1, human peroxiredoxin 6 (human), P30041; assay: SEC; Sephadex G-100 column (44 ml bed volume), hPrdx6 1 mg/ml, 10 mM sodium acetate buffer pH 4.0; void volume by blue dextran; both purified; details: remark: other sources report otherwise
T1 chain: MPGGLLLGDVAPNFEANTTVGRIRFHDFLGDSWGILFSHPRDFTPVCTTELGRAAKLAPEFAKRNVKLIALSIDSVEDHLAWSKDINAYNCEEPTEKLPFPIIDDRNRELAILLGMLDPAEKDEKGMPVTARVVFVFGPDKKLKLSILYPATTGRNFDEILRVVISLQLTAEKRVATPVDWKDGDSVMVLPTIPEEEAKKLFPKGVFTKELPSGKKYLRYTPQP

[2] = target: T1, human peroxiredoxin 6 (human), P30041; assay: SEC; Sephadex G-100 column (44 ml bed volume), hPrdx6 1 mg/ml, 10 mM Tris-HCl buffer pH 7.0; void volume by blue dextran; both purified; details: remark: other sources report otherwise

B1: human peroxiredoxin 6, P30041 1-224 (enzyme)
chain: MPGGLLLGDVAPNFEANTTVGRIRFHDFLGDSWGILFSHPRDFTPVCTTELGRAAKLAPEFAKRNVKLIALSIDSVEDHLAWSKDINAYNCEEPTEKLPFPIIDDRNRELAILLGMLDPAEKDEKGMPVTARVVFVFGPDKKLKLSILYPATTGRNFDEILRVVISLQLTAEKRVATPVDWKDGDSVMVLPTIPEEEAKKLFPKGVFTKELPSGKKYLRYTPQP
binding [1]: binds | binding [2]: binds
